These are yes or no findings as the source states them, for the method shown. In cells and extracts the contact can be indirect. Some entries that bind do so weakly or less than the wild type.
Molecular target: T1, CKLF like MARVEL transmembrane domain containing 6 (UniProt Q9NX76)
T1 sequence: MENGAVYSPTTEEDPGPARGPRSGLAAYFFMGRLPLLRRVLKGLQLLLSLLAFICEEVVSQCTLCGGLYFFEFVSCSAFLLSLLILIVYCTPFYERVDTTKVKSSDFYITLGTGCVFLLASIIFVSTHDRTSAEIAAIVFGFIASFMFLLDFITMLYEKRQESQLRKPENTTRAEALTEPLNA
Experiment: co-IP; reciprocal co-IP from lysates of Bel-7402 and MHCC-97H cells; 5 µg primary antibody (anti-CMTM6 or anti-vimentin), protein agarose beads, 4 °C for 2 h; western blotting of input and precipitates

By UniProt entry, the sequences of proteins in these tests, tags left out.
UniProt P08670: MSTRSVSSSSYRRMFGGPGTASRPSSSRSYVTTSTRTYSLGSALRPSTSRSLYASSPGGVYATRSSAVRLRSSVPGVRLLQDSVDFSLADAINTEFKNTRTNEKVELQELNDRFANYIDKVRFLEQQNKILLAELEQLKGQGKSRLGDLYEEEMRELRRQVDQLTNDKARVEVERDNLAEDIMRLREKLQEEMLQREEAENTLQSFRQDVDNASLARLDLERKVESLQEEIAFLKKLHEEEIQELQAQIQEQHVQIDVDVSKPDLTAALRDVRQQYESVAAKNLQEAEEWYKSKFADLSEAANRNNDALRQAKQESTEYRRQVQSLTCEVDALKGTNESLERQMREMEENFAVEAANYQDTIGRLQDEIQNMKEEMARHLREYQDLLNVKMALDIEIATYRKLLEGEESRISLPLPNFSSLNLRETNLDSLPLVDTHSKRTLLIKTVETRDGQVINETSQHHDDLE

binding: binds
Substance: vimentin (from UniProt P08670 1-466)

From PMC7989033
